System: BV-2 mouse microglial cells
Assay: Confocal imaging comparison of HKSOX-2m and MitoSOX Red with multiple superoxide inducers, co-staining with MitoTracker Green and Hoechst
Format: cell-based
Experimental: To further validate the performance of HKSOX-2m as a mitochondria-targeting superoxide probe, we conducted confocal imaging of HKSOX-2m with multiple superoxide inducers in BV-2 mouse microglial cells (FIG. 11), and compared HKSOX-2m's performance with that of MitoSOX Red™ (a widely used commercial fluorescent probe for mitochondrial superoxide detection; Invitrogen), by using the same drugs as stimulants (FIG. 12). Briefly, BV-2 cells were co-incubated for 40 min with probes (HKSOX-2m or MitoSOX Red™) and general superoxide inducers (PMA and zymosan, which elicit superoxide production from multiple superoxide sources including mitochondria) or specific mitochondrial superoxide inducers (diethyl succinate, diethyl malonate, and rotenone, which target the mitochondrial respiratory chain complexes). […] Slight spatial shifts in fluorescence signal were occasionally observed in the HKSOX-2m and MitoTracker Green channels, which could be accounted for by mitochondrial dynamics and time lag in confocal laser scanning for each channel. […] In fact, fluorescence distribution of the mitochondrial dye MitoTracker Green (Ex 488; Em 505 nm long-pass) was grossly distorted in the presence of MitoSOX Red™ (due to its broad tailing in emission spectrum), resulting in a loss of mitochondrial morphology.

For `CC1CC(C)(C)N(CCCC(=O)N2CCN(C(=O)CCCC[P+](c3ccccc3)(c3ccccc3)c3ccccc3)CC2)c2cc3c(cc21)C1(OC(=O)c2ccccc21)c1cc(F)c(OS(=O)(=O)C(F)(F)F)c(F)c1O3` (stereo not shown) [HKSOX-2m], the subcellular distribution (HKSOX-2m 2 μM, co-staining with MitoTracker Green 10 nM and Hoechst 33342 1 μg/mL) was “cytoplasmically distributed and well co-localized with mitochondria” and the “mitochondrial morphology in the probe channel” value (HKSOX-2m 2 μM, drug-treated groups) was “clear mitochondrial morphology could be discerned”.
In the case of `Nc1ccc2c(c1)C(c1ccccc1)N(CCCCCC[P+](c1ccccc1)(c1ccccc1)c1ccccc1)c1cc(N)ccc1-2.[I-]` (stereo not shown) [MitoSOX Red™], the subcellular distribution (MitoSOX Red 4 μM) is reported as “stained nuclear DNA and fluoresced brightly in the nucleus” and the “mitochondrial morphology in the probe channel” value (MitoSOX Red 4 μM, Em 565-615 nm band-pass) is reported as “no distinct mitochondrial morphology could be observed”.
